Results are given in words; binding and its absence hold for the method and conditions named. For some of these results: Binding seen in cells or lysates may run through a third protein. Some binding calls cover weakened binding; strength is not graded here. One block for each substance: values may come before it.
Assays:
[1] = molecular target: human DR5 (full-length) (human) (UniProt O14763); experiment: Western blots of co-immunoprecipitates (FIG. 5A)
[2] = molecular target: human DR5 (full-length) (human) (UniProt O14763); experiment: DR5 co-immunoprecipitation and Western blot (FIG. 5A)
[3] = molecular target: human DR5 (full-length) (human) (UniProt O14763); experiment: co-immunoprecipitation and Western blot with mouse anti-DDX3 monoclonal antibody
[4] = molecular target: human DR5 (full-length) (human) (UniProt O14763); experiment: DR5 immunoprecipitation with 2B4, immunoblot and sandwich ELISA, MDA231 and UL-3C cells
[5] = molecular target: human DR5 (full-length) (human) (UniProt O14763); experiment: DR5 co-IP, pancreatic cancer cells
[6] = molecular target: human DR5 (full-length) (human) (UniProt O14763); experiment: DR5 co-immunoprecipitation and sandwich ELISA of total cell lysate
[7] = molecular target: human DR5 (full-length) (human) (UniProt O14763); experiment: DR5 co-IP and Western blot
[8] = molecular target: human DR5 (full-length) (human) (UniProt O14763); experiment: co-immunoprecipitation using TRA-8, transfected HEK293A cells
[9] = molecular target: human DR5 (full-length) (human) (UniProt O14763); experiment: co-immunoprecipitation and Western blot with anti-6-His antibody, transfected MDA231 cells
[10] = molecular target: human DR5 (full-length) (human) (UniProt O14763); experiment: co-immunoprecipitation with TRA-8 and Western blot with anti-6-His antibody, co-transfected 3T3 cells

Protein sequences, listed by entry. Tags and fused reporters are not part of them. Lines headed by an entry give the natural chain unless they say otherwise; changes in a name come on top. Residues count along the entry.
UniProt O14763, residues 56-440: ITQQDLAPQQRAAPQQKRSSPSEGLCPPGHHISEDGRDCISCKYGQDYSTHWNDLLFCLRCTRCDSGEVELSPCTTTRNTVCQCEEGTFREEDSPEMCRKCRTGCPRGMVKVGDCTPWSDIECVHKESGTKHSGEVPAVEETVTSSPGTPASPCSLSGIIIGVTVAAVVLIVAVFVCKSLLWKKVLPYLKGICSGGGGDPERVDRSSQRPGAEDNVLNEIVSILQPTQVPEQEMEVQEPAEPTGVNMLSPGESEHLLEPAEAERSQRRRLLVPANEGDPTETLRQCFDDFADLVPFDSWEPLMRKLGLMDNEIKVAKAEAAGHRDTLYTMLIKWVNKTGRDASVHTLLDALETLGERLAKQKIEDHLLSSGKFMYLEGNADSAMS
UniProt Q13158: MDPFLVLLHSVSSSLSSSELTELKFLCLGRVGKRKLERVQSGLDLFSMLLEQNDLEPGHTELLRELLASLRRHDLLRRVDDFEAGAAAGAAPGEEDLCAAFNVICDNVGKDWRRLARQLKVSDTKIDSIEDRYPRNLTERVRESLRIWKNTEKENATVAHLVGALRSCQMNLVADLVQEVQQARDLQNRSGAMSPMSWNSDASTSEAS
UniProt O00571: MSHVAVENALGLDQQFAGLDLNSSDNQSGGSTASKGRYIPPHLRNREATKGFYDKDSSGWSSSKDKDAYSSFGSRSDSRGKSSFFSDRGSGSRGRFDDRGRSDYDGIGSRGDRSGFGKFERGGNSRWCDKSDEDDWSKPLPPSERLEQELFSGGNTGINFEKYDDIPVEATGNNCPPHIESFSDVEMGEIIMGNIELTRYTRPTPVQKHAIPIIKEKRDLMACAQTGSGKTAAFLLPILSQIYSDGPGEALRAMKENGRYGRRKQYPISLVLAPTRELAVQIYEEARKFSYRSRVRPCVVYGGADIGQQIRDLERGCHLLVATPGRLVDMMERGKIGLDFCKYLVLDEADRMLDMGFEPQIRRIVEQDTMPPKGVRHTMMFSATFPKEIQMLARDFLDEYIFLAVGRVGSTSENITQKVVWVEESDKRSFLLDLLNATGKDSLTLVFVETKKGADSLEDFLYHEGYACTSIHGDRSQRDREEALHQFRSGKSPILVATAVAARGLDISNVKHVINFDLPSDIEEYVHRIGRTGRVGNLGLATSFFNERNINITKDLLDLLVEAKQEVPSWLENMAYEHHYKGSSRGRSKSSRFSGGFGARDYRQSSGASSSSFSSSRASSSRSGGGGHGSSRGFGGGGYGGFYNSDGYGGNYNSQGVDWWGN

binding [1]: binds | binding [2]: binds
Substance: FADD (from UniProt Q13158 1-208)

binding [3]: binds | binding [4]: binds | binding [5]: binds | binding [6]: binds
Substance: DDX3 (endogenous, full-length human DDX3 in tumor cell lysates) (from UniProt O00571 1-662)

binding [7]: binds
Substance: DDX3ΔCARD (DDX3Δ151-662) (from UniProt O00571 151-662)

binding [8]: binds | binding [9]: binds | binding [10]: binds
Substance: His-tagged full-length DDX3 (amino acids 1-662) (from UniProt O00571 1-662)

From patent US20110104143A1
